Library screen at single concentrations

Protein sequences, listed by entry. Tags and fused reporters are not part of them.
UniProt I6X8D2, whole entry: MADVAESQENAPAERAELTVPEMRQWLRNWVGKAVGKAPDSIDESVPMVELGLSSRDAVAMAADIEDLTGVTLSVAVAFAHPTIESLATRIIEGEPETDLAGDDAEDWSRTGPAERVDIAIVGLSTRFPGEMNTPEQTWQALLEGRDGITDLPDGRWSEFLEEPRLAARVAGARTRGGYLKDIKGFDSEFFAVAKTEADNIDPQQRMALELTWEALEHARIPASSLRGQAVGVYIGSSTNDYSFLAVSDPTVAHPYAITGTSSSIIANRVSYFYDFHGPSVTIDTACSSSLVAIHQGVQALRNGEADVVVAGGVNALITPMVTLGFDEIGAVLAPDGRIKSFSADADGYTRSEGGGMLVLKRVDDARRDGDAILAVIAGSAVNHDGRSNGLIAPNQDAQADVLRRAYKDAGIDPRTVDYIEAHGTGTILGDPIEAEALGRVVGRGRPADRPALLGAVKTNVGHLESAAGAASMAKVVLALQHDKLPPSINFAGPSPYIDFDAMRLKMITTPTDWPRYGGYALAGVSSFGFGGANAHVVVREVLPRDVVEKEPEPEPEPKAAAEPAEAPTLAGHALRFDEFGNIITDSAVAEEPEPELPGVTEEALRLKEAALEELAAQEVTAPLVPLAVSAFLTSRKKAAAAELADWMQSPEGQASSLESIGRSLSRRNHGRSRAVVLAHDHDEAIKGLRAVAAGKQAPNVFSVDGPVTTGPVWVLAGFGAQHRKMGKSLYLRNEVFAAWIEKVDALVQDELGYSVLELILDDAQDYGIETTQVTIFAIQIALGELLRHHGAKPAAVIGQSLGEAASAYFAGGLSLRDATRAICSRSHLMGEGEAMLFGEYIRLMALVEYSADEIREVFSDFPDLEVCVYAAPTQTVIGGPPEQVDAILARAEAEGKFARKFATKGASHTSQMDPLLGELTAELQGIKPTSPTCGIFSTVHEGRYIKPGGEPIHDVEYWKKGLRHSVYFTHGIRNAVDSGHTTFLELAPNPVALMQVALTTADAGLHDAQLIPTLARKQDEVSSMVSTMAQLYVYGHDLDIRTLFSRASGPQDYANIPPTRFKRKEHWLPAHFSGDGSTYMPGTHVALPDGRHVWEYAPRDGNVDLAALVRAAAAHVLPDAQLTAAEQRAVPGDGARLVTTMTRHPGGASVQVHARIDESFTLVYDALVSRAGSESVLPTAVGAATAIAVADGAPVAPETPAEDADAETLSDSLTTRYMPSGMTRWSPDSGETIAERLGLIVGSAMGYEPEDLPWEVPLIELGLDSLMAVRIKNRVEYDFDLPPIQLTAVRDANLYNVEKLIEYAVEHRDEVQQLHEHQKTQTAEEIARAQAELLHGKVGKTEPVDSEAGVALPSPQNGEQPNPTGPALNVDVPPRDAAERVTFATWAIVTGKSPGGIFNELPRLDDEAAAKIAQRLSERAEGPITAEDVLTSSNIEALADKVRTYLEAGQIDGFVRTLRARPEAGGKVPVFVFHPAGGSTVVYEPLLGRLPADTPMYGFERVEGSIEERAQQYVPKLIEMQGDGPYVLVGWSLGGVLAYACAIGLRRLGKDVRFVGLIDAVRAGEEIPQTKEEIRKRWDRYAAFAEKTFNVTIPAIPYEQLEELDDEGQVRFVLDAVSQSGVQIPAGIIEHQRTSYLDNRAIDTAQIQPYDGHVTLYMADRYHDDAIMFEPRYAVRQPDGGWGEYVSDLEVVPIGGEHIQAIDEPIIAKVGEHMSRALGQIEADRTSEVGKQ

Measurements from “University of Dundee, Small-Polar-MMV Screening Library” (2021), ChEMBL document CHEMBL3988442.

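Polyketide synthase Pks13, Mycobacterium tuberculosis (UniProt I6X8D2). Enzyme assay of the thioesterase domain of polyketide synthase 13; the read-out is not stated. Tested at 30 µM. Higher reads as stronger inhibition (inferred from which compounds were picked for retests). About 67,000 compounds were tested under these conditions; 0.46% (about 300) showed 50% or more at least once.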

The filed quantity is “Percent Effect” (%).
The record does not define 0% and 100%; most values in the screen are far below 50% and negative numbers occur (in some assays of this library far below -100).
The compounds are a random part of those screened.

| compound | Percent Effect |
|---|---|
| `Cc1cc(C)n(CC2CCCN2C(=O)c2nccc3ccccc23)n1` (stereo not drawn) | -19.17 |
| `Cn1ccnc1CC1CCCN(C(=O)Nc2cccn(C)c2=O)C1` (stereo not drawn) | -6.958 |
| `N#Cc1nccnc1N1CCC(c2nc(C(F)(F)F)c[nH]2)CC1` | -5.099 |
| `c1cnn(Cc2ccc(CN3CCC4(CCNCC4)C3)cc2)c1` | 4.998 |
| `O=C(CCC(=O)N1CCCC1c1cccs1)N1CCc2sccc2C1` (stereo not drawn) | -12.83 |
| `COCCN1CCc2ncnc(N(C)C)c2CC1` | -11.57 |
| `CC(C)[C@H](NC(=O)NC1CCS(=O)(=O)C1)C(=O)NCc1ccc(Cl)cc1` (stereo partly drawn) | -34.39 |
| `N#Cc1ccccc1Cn1cncn1` | 4.199 |
| `CCN(CCOC)C(=O)c1ccc2c(c1)nc(N1CC[C@H](O)C1)n2C` | -29.53 |
| `CN(C)CCCN(Cc1ccco1)Cc1ccnn1C1CCCCO1` (stereo not drawn) | 1.222 |
| `Cc1cnn(CC2CCCN2CC(=O)N(C)Cc2cnn(C)c2)c1` (stereo not drawn) | -32.75 |
| `Cc1ccc(NC(=O)C(C)N2CCCN(c3nccs3)CC2)c(C)c1` (stereo not drawn) | -7.2 |
| `CC(C)CNC(=O)CN(C)S(C)(=O)=O` | 0.7561 |
| `COc1ccc(CN2CC[C@H]3[C@H](CO[C@H]3CNC(=O)N(C)C)C2)cc1` | -35.74 |
| `CC1CN(C(=O)Nc2cc(C(F)(F)F)c[nH]c2=O)CCO1` (stereo not drawn) | -14.88 |
| `Cn1cccc1CN1CCC2(CCCN(C(=O)c3cccnc3)C2)CC1` | -32.74 |
| `O=S(=O)(c1cccs1)N1CCCn2cnc(CN3CCCC3)c2C1` | -5.24 |
| `COCCN1C[C@@H](C)[C@@]2(COCCN(C(=O)c3ccccn3)C2)C1` | -24.59 |
| `Cc1cnn(CC2CCCCN2Cc2nc(C)c3ccccc3n2)c1` (stereo not drawn) | -15.6 |
| `CN1N=C(C(=O)N2CCCCC2)S(=O)(=O)c2ccccc21` | -5.624 |
| `CCc1nnc(CN(CC)C(=O)C2CC(=O)N(C3CCCC3)C2)o1` (stereo not drawn) | -8.83 |
| `CC1CN(c2ncccc2C(=O)N[C@@H]2CCCc3ccccc32)CCN1` (stereo partly drawn) | 19.06 |
| `COC(=O)c1ccc(C(=O)NCc2nn(C)c3c2COCC3)cc1` | 3.054 |
| `Cc1nc(N2CCN(C)CC2)ncc1C(=O)N1CCC(O)(CO)CC1` | -9.481 |
| `CCCS(=O)(=O)N1CCC2(CCCN(c3ncc(F)cn3)C2)C1` (stereo not drawn) | -14.02 |
| `O=C(CNC(=O)N1CCc2c([nH]c3ccc(Cl)cc23)C1)N1CCOCC1` | -14.94 |
| `O=C(Nc1cc(-c2cccnc2)no1)C1CCCCC1` | 2.093 |
| `c1csc(CN2CCCn3cnc(COCC4CC4)c3C2)c1` | -5.86 |
| `Fc1ccc(CN2CCO[C@H]3[C@H](OCCN4CCCC4)CC[C@@H]32)cc1` | -7.442 |
| `CN(Cc1ncnn1C1Cc2ccccc2C1)C1CCS(=O)(=O)C1` (stereo not drawn) | -16.63 |
| `CC(C)Cc1cc(CC2(NCc3ccco3)COC2)no1` | -33.66 |
| `O=C(Nc1cnccn1)[C@@H]1CCO[C@@H]2CCN(Cc3ccsc3)C[C@@H]21` | -12.3 |
| `COc1cc(F)c(NC(=O)N(C)Cc2cc(C)on2)cc1F` | -6.004 |
| `Cc1c(CN2C[C@@H](O)[C@H](Oc3cccc(F)c3)C2)cnn1C` | 6.393 |
| `O=C(CN1CCSCC1c1ccccc1)N1CCOCC1` (stereo not drawn) | -16.25 |
| `CN1CCN(C(=O)c2cc(-c3cccs3)cs2)CC1` | -5.705 |
| `CCS(=O)(=O)N1CCCN(CCCOC)CC1` | -11.49 |
| `CCOc1ccc([C@@H]2N[C@H](c3nccs3)Cc3ccsc32)cc1OC` | 24.67 |
| `Cc1nccn1-c1ncccc1CNC(=O)c1ccc(O)nc1` | -22.4 |
| `CC(C(=O)N1CCN(C(=O)c2ccc(F)cc2)CC1)n1ccnc1` (stereo not drawn) | -56.62 |
| `Cc1cccc(C(=O)NCc2ccc(OCCN(C)C)cc2)c1C` | 1.362 |
| `O=c1c2sccc2nc2n1CCN(Cc1ccsc1)CC2` | -27.4 |
| `CCN(CC1CCCO1)C(=O)Nc1cc(C)ccc1S(C)(=O)=O` (stereo not drawn) | -5.407 |
| `Cc1ccccc1Cc1nc(CSc2nnc(N)n2C2CC2)no1` | -6.816 |
| `CCc1cccc(N2CCC(NC(=O)C3CCCO3)CC2)c1` (stereo not drawn) | -15.13 |
| `CC(C)c1nc(CN2CCN(C(=O)Cc3ccccc3Cl)CC2)no1` | -15.17 |
| `COCc1c(C(=O)O)nnn1Cc1cccc(C(F)(F)F)c1` | -17.99 |
| `Cn1cc(C(=O)N2CC[C@@]3(O)CCN(C(=O)C4CCC4)C[C@H]3C2)cn1` | 1.919 |
| `O=C(Nc1nncs1)c1ccc(O)nc1` | -20.71 |
| `N#Cc1cnn(C(=O)CCCOc2ccccc2Cl)c1N` | 13.35 |
| `CCc1oc(C(=O)OC)cc1Cn1cccc(C(F)(F)F)c1=O` | -19.1 |
| `CCS(=O)(=O)CC(C)N(C)C(=O)COc1ccccc1C#N` (stereo not drawn) | -9.844 |
| `COc1cccc2c(=O)n(CCN3CCNCC3)cnc12` | -20.94 |
| `Cc1nc(CN2CCN(C(=O)NC(C)Cn3ccnc3)CC2)cs1` (stereo not drawn) | -28.32 |
| `CNC(=O)c1ccnc(N2CCCC(COc3cccc(C)c3)C2)c1` (stereo not drawn) | 32.39 |
| `Cn1nccc1C(=O)N1CCOC(Cc2ccc(F)cc2)C1` (stereo not drawn) | 0.2784 |
| `CN(CC1CC1)c1ccc2ccc(C(=O)NCCc3ccccc3)cn12` | 9.044 |
| `CC(C)c1noc(CN(Cc2cccnc2)C2CN3CCC2CC3)n1` (stereo not drawn) | -2.593 |
| `N#CCCNC(=O)CSc1cc(F)ccc1F` | -7.005 |
| `O=C(NCC1CC(=O)N(CCc2ccccc2)C1)c1c(F)cccc1F` (stereo not drawn) | -13.58 |
| `Cc1ccc([C@@H]2CN(C(=O)c3ccc[nH]3)C[C@H]2NC(=O)C2CC2)cc1` | 2.705 |
| `Cc1nc[nH]c1-c1nccn1-c1ccc(C(N)=O)c(N2CCCC2)c1` | -15.34 |
| `O=C(Cc1cccnc1)N1CC(Cc2nccc3cc[nH]c23)C1` | -6.383 |
| `O=C1C[C@H]2[C@@H](CCN2C(=O)c2ccccc2)N1CCN1CCOCC1` | -10.28 |
| `Cc1cn(-c2ccccc2)nc1NS(=O)(=O)c1ccc(C(=O)O)cc1` | 3.357 |
| `Cc1nccn1CCCC(=O)N1CCN(c2cccnc2)CC1` | 1.247 |
| `NC(=O)Nc1cccc(Oc2ccccn2)c1` | -19.18 |
| `CN(C)C(CNCc1nc(-c2ccsc2)no1)c1ccco1` (stereo not drawn) | -20.87 |

4 of the entries, repeated:

compound,Percent Effect
CC1CN(C(=O)Nc2cc(C(F)(F)F)c[nH]c2=O)CCO1 (stereo not drawn),-14.88
Fc1ccc(CN2CCO[C@H]3[C@H](OCCN4CCCC4)CC[C@@H]32)cc1,-7.442
N#Cc1nccnc1N1CCC(c2nc(C(F)(F)F)c[nH]2)CC1,-5.099
Cc1nccn1CCCC(=O)N1CCN(c2cccnc2)CC1,1.247